Test system: human blood platelets
Experiment: In vitro inhibition of ADP-induced human platelet aggregation (platelet-rich plasma, aggregometer)
Type: cell-based
Settings: read-out: Ia50 (compound concentrations affecting 50% inhibition of aggregation) ± S.E., Table II, n = 5 for (0)I and 6 for all others
Description: Procedure for Determining In Vitro Platelet Aggregation-Inhibitory Activity. Adenosine diphosphate (ADP) was used to induce platelet aggregation and was utilized as the sodium salt. A 10 mM stock solution was prepared fresh before each use in modified Tyrode's buffer and working dilutions were prepared with modified Tyrode's buffer immediately prior to use. The buffer contained NaCl (137.00 mM), KCl (2.70 mM), NaHCO3 (11.90 mM), NaH2 PO4 H2 O (0.36 mM) and glucose (5.60 mM) in redistilled water. Adjustment to pH 7.4 was effected by addition of 1N HCl.
The blood was transferred into plastic centrifuge tubes containing 3.2% sodium citrate (blood/citrate ratio 8:1) and centrifuged at 120Xg for 15 minutes at 23° C., yielding platelet-rich plasma (PRP); platelet-poor-plasma (PPP) was obtained by centrifugation of citrated whole blood at 1,100Xg for 15 min at 23° C. The platelet count of PRP was determined and adjusted to a final count of 300,000 platelet per mm^3 by dilution with autologous PPP. […]
Initially, in each experiment, 0.45-ml aliquots of PRP were placed in siliconized cuvettes and stirred (1,100 rpm) in the aggregometer at 37° C. to ascertain the absence of spontaneous aggregation. […] In each case, the concentration of ADP so determined was used in eliciting aggregation throughout each specific set of aggregometric evaluations. […]

## CC(C)NCC(O)COc1cccc2ccccc12 (stereo not shown) [Propranolol, reference compound]
  IC50: 175 ± 17 µM
